# Results from one PubChem assay

From PubChem BioAssay record AID504749 (NCATS, 2011).

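A panel of P. falciparum strains inside erythrocytes is exposed to compounds for three days, then a DNA-binding dye reports the amount of parasite DNA. Each compound was titrated across a series from about 0.000037 to 29 µM. The number is the fitted AC50, the concentration giving a half-maximal change in signal; a lower value means higher potency, whether the curve shows a decrease or an increase. Calls follow the curve class and fit quality: every row here is inconclusive, covering signal-raising curves and weak, poorly fitted, partial or highest-dose-only inhibition curves.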

Values are in µM. Every entry below has the call inconclusive. These entries are mostly ones the record files as inconclusive; other results of the assay are not listed here. A potency from a partial, single-point or poor curve is only a rough figure. Some entries filed as inconclusive have a full curve.

Compound	tested on / at	potency (µM)	curve as filed
Cc1cc(OI)c(C(C)C)cc1-c1cc(C(C)C)c(OI)cc1C	CP217	8.912	inhibitor, single point
Cc1cc(OI)c(C(C)C)cc1-c1cc(C(C)C)c(OI)cc1C	PAD	12.59	inhibitor, single point
Cc1cc(OI)c(C(C)C)cc1-c1cc(C(C)C)c(OI)cc1C	CP297	19.01	inhibitor, single point
Cc1cc(OI)c(C(C)C)cc1-c1cc(C(C)C)c(OI)cc1C	TAB109	17.78	inhibitor, single point
Cc1cc(OI)c(C(C)C)cc1-c1cc(C(C)C)c(OI)cc1C	PC26	9.528	inhibitor, partial curve, poor fit
Cc1cc(OI)c(C(C)C)cc1-c1cc(C(C)C)c(OI)cc1C	3D7	8.912	inhibitor, single point
Cc1cc(OI)c(C(C)C)cc1-c1cc(C(C)C)c(OI)cc1C	CP252	12.59	inhibitor, single point
Cc1cc(OI)c(C(C)C)cc1-c1cc(C(C)C)c(OI)cc1C	ECU	10	inhibitor, partial curve
Cc1cc(OI)c(C(C)C)cc1-c1cc(C(C)C)c(OI)cc1C	ATS189	10	inhibitor, single point
Cc1cc(OI)c(C(C)C)cc1-c1cc(C(C)C)c(OI)cc1C	CP192	19.01	inhibitor, single point
Cc1cc(OI)c(C(C)C)cc1-c1cc(C(C)C)c(OI)cc1C	CP265	14.13	inhibitor, single point
Cc1cc(OI)c(C(C)C)cc1-c1cc(C(C)C)c(OI)cc1C	SC27B	10	inhibitor, single point
Cc1cc(OI)c(C(C)C)cc1-c1cc(C(C)C)c(OI)cc1C	CP260	7.943	inhibitor, partial curve
Cc1cc(OI)c(C(C)C)cc1-c1cc(C(C)C)c(OI)cc1C	AS120	11.22	inhibitor, single point
Cc1cc(OI)c(C(C)C)cc1-c1cc(C(C)C)c(OI)cc1C	DIV30	13.46	inhibitor, single point
Cc1cc(OI)c(C(C)C)cc1-c1cc(C(C)C)c(OI)cc1C	CP215	10.69	inhibitor, partial curve, poor fit
Cc1cc(OI)c(C(C)C)cc1-c1cc(C(C)C)c(OI)cc1C	PC49	11.22	inhibitor, single point
Cc1cc(OI)c(C(C)C)cc1-c1cc(C(C)C)c(OI)cc1C	CP335	19.01	inhibitor, single point
Cc1cc(OI)c(C(C)C)cc1-c1cc(C(C)C)c(OI)cc1C	AA1029	11.22	inhibitor, single point
Cc1cc(OI)c(C(C)C)cc1-c1cc(C(C)C)c(OI)cc1C	CP268	13.46	inhibitor, single point
Cc1cc(OI)c(C(C)C)cc1-c1cc(C(C)C)c(OI)cc1C	CP291	15.1	inhibitor, single point
Cc1cc(OI)c(C(C)C)cc1-c1cc(C(C)C)c(OI)cc1C	TAB165	11.22	inhibitor, single point
Cc1cc(OI)c(C(C)C)cc1-c1cc(C(C)C)c(OI)cc1C	C2A	15.85	inhibitor, single point
Cc1cc(OI)c(C(C)C)cc1-c1cc(C(C)C)c(OI)cc1C	HB3	10	inhibitor, single point
Cc1cc(OI)c(C(C)C)cc1-c1cc(C(C)C)c(OI)cc1C	CP325	12	inhibitor, single point
Cc1cc(OI)c(C(C)C)cc1-c1cc(C(C)C)c(OI)cc1C	ATS95	10	inhibitor, single point
CN1CCC(=C2c3ccccc3CC(=O)c3sccc32)CC1	CP260	7.08	inhibitor, partial curve, poor fit
CN1CCC(=C2c3ccccc3CC(=O)c3sccc32)CC1	CP256	1.778	inhibitor, full curve
CN1CCC(=C2c3ccccc3CC(=O)c3sccc32)CC1	CP247	3.981	inhibitor, partial curve
CN1CCC(=C2c3ccccc3CC(=O)c3sccc32)CC1	CP291	4.776	inhibitor, partial curve
CN1CCC(=C2c3ccccc3CC(=O)c3sccc32)CC1	CP191	12.59	inhibitor, single point
CN1CCC(=C2c3ccccc3CC(=O)c3sccc32)CC1	PAD	10	inhibitor, partial curve
CN1CCC(=C2c3ccccc3CC(=O)c3sccc32)CC1	CP238	8.912	inhibitor, partial curve
CN1CCC(=C2c3ccccc3CC(=O)c3sccc32)CC1	CP211	6.012	inhibitor, partial curve
CN1CCC(=C2c3ccccc3CC(=O)c3sccc32)CC1	TAB109	5.012	inhibitor, partial curve
CN1CCC(=C2c3ccccc3CC(=O)c3sccc32)CC1	CP215	8.492	inhibitor, partial curve
CN1CCC(=C2c3ccccc3CC(=O)c3sccc32)CC1	DIV30	13.46	inhibitor, single point
CN1CCC(=C2c3ccccc3CC(=O)c3sccc32)CC1	AS120	4.467	inhibitor, partial curve
CN1CCC(=C2c3ccccc3CC(=O)c3sccc32)CC1	C2A	7.08	inhibitor, partial curve, poor fit
CN1CCC(=C2c3ccccc3CC(=O)c3sccc32)CC1	JCK	10	inhibitor, single point
CN1CCC(=C2c3ccccc3CC(=O)c3sccc32)CC1	CP217	5.012	inhibitor, partial curve, poor fit
CN1CCC(=C2c3ccccc3CC(=O)c3sccc32)CC1	ICS	10	inhibitor, single point
CN1CCC(=C2c3ccccc3CC(=O)c3sccc32)CC1	P94_40	4.467	inhibitor, partial curve
CN1CCC(=C2c3ccccc3CC(=O)c3sccc32)CC1	CP269	4.776	inhibitor, partial curve

For reference, 3 entries once more:

CN1CCC(=C2c3ccccc3CC(=O)c3sccc32)CC1 [CP238] gave potency 8.912 µM (inhibitor, partial curve).
Cc1cc(OI)c(C(C)C)cc1-c1cc(C(C)C)c(OI)cc1C [CP252] gave potency 12.59 µM (inhibitor, single point).
CN1CCC(=C2c3ccccc3CC(=O)c3sccc32)CC1 [TAB109] gave potency 5.012 µM (inhibitor, partial curve).